# Source: PubChem BioAssay AID2685 (National Center for Advancing Translational Sciences (NCATS), 2010)
# This is one part of the list. Shown are side measurements of this screen, not its main read-out; they come without a call. Compounds called inactive in the main read-out are mostly missing here. Words in brackets tell the shape of the fitted curve; partial curves, single points and poor fits give uncertain potencies.
# Test: qHTS Assay for Lipid Storage Modulators in Drosophila S3 Cells;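 on cell number change: cells counted by Cell Tracker Red CMTPX staining in the red channel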
# Conditions: BODIPY lipid droplet fluorescence, 18-24 h; for cell number change: measured here: cell count max response, cells fed with added oleic acid
# In short: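 Laser-scanning cytometry quantifies lipid droplet accumulation (500–530 nm total intensity; droplet/cell object ratio) in oleic acid-fed (400 uM added) Drosophila S3 cells treated with a concentration series. 20 uM Triacsin C defined 100% inhibition.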
# [1] = measured here: lipid fluorescence (Fed channel) AC50, cells fed with added oleic acid
# [2] = measured here: cell number channel AC50, cells fed with added oleic acid
Structure (SMILES),cell number change [%],AC50 [1],AC50 [2]
Cc1[nH]c2ccccc2c1C(=O)C(=O)NCCc1c[nH]c2ccccc12,-18.9,"0.092 µM [rising, full curve, poor fit]",–
CCc1nnc(NS(=O)(=O)c2ccc(NC(=S)NC(=O)c3ccc(OC)c(OC)c3)cc2)s1,-17.8,"1.64 µM [falling, partial curve, poor fit]",–
CCCn1c(CN2CCN(C(=O)OCC)CC2)nc2c1c(=O)n(C)c(=O)n2C,9.19,"6.51 µM [falling, single point]",–
CC1(C)CC(=O)C2=C(C1)N(C1CCCCC1)C(=O)C2(O)C(F)(F)F (centres undefined),6.64,"1.46 µM [falling, full curve, poor fit]",–
O=C(NCC1(N2CCCCC2)CCCCC1)c1cccc(NS(=O)(=O)c2ccccc2)c1,-50,–,"29.1 µM [falling, single point]"
Cc1cc(C)c(S(=O)(=O)NCc2ccc3c(c2)OCO3)cc1C,17.6,–,–
CCCCNC(=O)NNC(=O)COc1cc(C)cc(C)c1,-8.95,"6.51 µM [falling, partial curve, poor fit]",–
CCCN1CCN(C(=O)c2cccc3c2C(=O)N(CCOC)C3)CC1,-35.1,"6.51 µM [falling, single point]","6.51 µM [falling, partial curve]"
COCCNC(=O)COc1ccc(Br)cc1Cl,83.4,"2.31 µM [rising, partial curve, poor fit]","14.6 µM [rising, partial curve]"
CCSC1=C(C#N)C(c2ccc(C)o2)CC(=O)N1 (centres undefined),3.74,–,"2.31 µM [rising, single point]"
Cc1ccc(C(=O)OC(C)C(=O)Nc2ccc(Cl)cn2)s1 (centres undefined),-4.93,"4.11 µM [rising, partial curve, poor fit]",–
Cc1nc2ccc(C(=O)N3c4ccccc4CC3C)cc2s1 (centres undefined),117,–,"16.4 µM [rising, partial curve]"
CN1CCN(CCCCOc2ccc(F)cc2)CC1,0.129,"0.00461 µM [rising, full curve, poor fit]",–
CCCc1c(O)nc(SC2CC(=O)N(c3ccc(OC)cc3)C2=O)[nH]c1=O (centres undefined),-8.54,"0.731 µM [rising, single point]",–
Cc1cc(C(=O)N2CCN(S(C)(=O)=O)CC2)sc1-c1ccccc1,12,"29.1 µM [falling, single point]",–
CCOc1cc(/C=N/n2cnnc2)cc(Br)c1O,-16.9,"0.82 µM [rising, full curve]",–
Cc1nc2ccccc2c(=O)n1/N=C/c1cc(Br)ccc1O,13.5,"6.51 µM [falling, single point]",–
COc1cc(/C=C2\CC/C(=C\c3ccc(OCCO)c(OC)c3)C2=O)ccc1OCCO,–,"14.6 µM [falling, partial curve, poor fit]",–
CCN(CC)CCN(C(=O)c1ccc(S(=O)(=O)N2CCCCC2)cc1)c1nc2cc3c(cc2s1)OCO3,-6.13,–,"2.59 µM [falling, partial curve]"
CNS(=O)(=O)c1ccc(N2CCCC2)c([N+](=O)[O-])c1,71.3,–,–

Structure (SMILES),cell number change [%],AC50 [1],AC50 [2]
CCS(=O)c1ccccc1C(=O)O (centres undefined),-34.5,"2.59 µM [rising, single point]","1.3 µM [falling, full curve]"
COc1ccc(-c2noc(CCC(=O)NCc3cc(Br)ccc3OC)n2)cc1,-19.5,–,"0.517 µM [falling, partial curve]"
CCN1CCN(CC(=O)Nc2ccc3c(c2)OCCO3)C(=O)C1=O,-17.1,"0.651 µM [falling, full curve, poor fit]",–
Cc1ccc(S(=O)(=O)CNC(=S)c2ccc3ccccc3c2)cc1,15.2,"1.46 µM [falling, partial curve]","0.13 µM [falling, full curve]"
CC1=CC(C)[C@H](/C=N/n2c(=O)[nH]c3c([nH]c4ccc(C)cc43)c2=O)C(C)C1 (some centres undefined),-64.6,"7.31 µM [falling, partial curve]","8.2 µM [falling, partial curve]"
CN(CC(=O)Nc1ccccc1Cl)C1CCS(=O)(=O)C1 (centres undefined),-35,"23.1 µM [falling, single point]","29.1 µM [falling, single point]"
CCCCOc1ccc(C(=O)OCC(=O)Nc2cc(C)on2)cc1,4.27,"29.1 µM [falling, partial curve, poor fit]",–
CCOc1ccc(NC(=O)Nc2ccccc2SC)cc1,-10.1,"3.66 µM [falling, single point]",–
CC(C)CN(C(=O)COC(=O)CCCc1c[nH]c2ccccc12)c1c(N)n(Cc2ccccc2)c(=O)[nH]c1=O,-21.6,–,–
CC(C)CC(=O)Nc1cccc(C(C)O)c1 (centres undefined),–,"0.00651 µM [falling, full curve, poor fit]",–
Cc1c(C(=O)N/N=C/c2cccs2)nnn1-c1nonc1N,10.1,"29.1 µM [falling, single point]",–
CCOc1ccc(-c2noc(CCCC(N)=O)n2)cc1OC,–,"3.66 µM [rising, single point]","1.84 µM [rising, partial curve]"
Cc1ccc(/C=C2\NC(=S)NC2=O)cc1[N+](=O)[O-],20.3,"16.4 µM [rising, partial curve]",–
C=CCN(c1ccccc1Cl)S(=O)(=O)c1cccc(C(=O)NCCc2ccc(OC)cc2)c1,26.1,–,–
CCCc1c(C(=O)N/N=C(\C)CCc2ccccc2)nnn1-c1nonc1N,24,"5.17 µM [falling, partial curve, poor fit]",–
NC(=O)C1CCN(c2oc(/C=C/c3ccccc3)nc2S(=O)(=O)c2ccccc2)CC1,-5.81,"1.46 µM [falling, single point]",–
CCOc1ccc(C2C3=C(Nc4nc(N)[nH]c(=O)c42)c2ccccc2C3=O)cc1 (centres undefined),36.8,"14.6 µM [rising, partial curve, poor fit]","7.31 µM [rising, partial curve, poor fit]"
Cc1[nH]n(-c2ccccc2)c(=O)c1/C=N/N1C(=O)c2cccc3cccc(c23)C1=O,-17.6,"23.1 µM [falling, single point]",–
CCc1nccn1S(=O)(=O)c1ccc(C)c(C)c1,-28.4,"0.651 µM [falling, full curve]","0.651 µM [falling, full curve]"
O=C1CCCC(=O)C1=Cc1c[nH]c2ccccc12,–,"6.51 µM [falling, single point]",–

# 4 entries from above, ordered by heavy-atom count, largest number first:
Structure (SMILES),cell number change [%],AC50 [1],AC50 [2]
NC(=O)C1CCN(c2oc(/C=C/c3ccccc3)nc2S(=O)(=O)c2ccccc2)CC1,-5.81,"1.46 µM [falling, single point]",–
CCCc1c(C(=O)N/N=C(\C)CCc2ccccc2)nnn1-c1nonc1N,24,"5.17 µM [falling, partial curve, poor fit]",–
CCOc1ccc(-c2noc(CCCC(N)=O)n2)cc1OC,–,"3.66 µM [rising, single point]","1.84 µM [rising, partial curve]"
Cc1ccc(/C=C2\NC(=S)NC2=O)cc1[N+](=O)[O-],20.3,"16.4 µM [rising, partial curve]",–

# Continued:

Structure (SMILES),cell number change [%],AC50 [1],AC50 [2]
Cc1onc(-c2c(F)cccc2Cl)c1C(=O)NCc1ccc(S(N)(=O)=O)cc1,35.3,"1.16 µM [rising, full curve]","1.46 µM [rising, full curve, poor fit]"
N#CCCCCn1c(-c2cncs2)nc2ccccc21,-1.94,"6.51 µM [falling, single point]",–
Cc1sc2nc(CN3CCCCC3)nc(N3CCN(C(=O)c4ccco4)CC3)c2c1C,38.4,"29.1 µM [rising, single point]","0.366 µM [rising, full curve, poor fit]"
CCOC(=O)C1C(=O)C=C(c2ccc(C)cc2)CC1c1ccccc1 (centres undefined),–,"25.9 µM [rising, single point]",–
COc1ccc(/C=C(\C#N)c2c[nH]c3ccccc23)cc1,-43.4,–,"2.91 µM [falling, partial curve]"
COc1ccccc1N(C(=O)CNC(=O)c1ccco1)C(C(=O)NC1CCCCC1)c1ccncc1 (centres undefined),-22.9,–,–
CCOCc1c(C(=O)OCC(=O)Nc2ccc(C)c(S(=O)(=O)N(C)C)c2)oc2ccccc12,17,"1.03 µM [rising, partial curve]",–
COc1ccccc1/C=C(/C(=O)OCC(=O)NCc1ccccc1)c1ccccc1,-48.2,–,–
CCCOC(=O)c1ccc(NC(=O)c2cnccn2)cc1,16.1,–,–
Cc1ccc(NC(=O)CSc2nc3ncc(Br)cc3[nH]2)cc1C,-8.87,"0.206 µM [rising, partial curve, poor fit]",–
CCOC(=O)c1cn(-c2ccc(F)c(F)c2F)c2c(F)c(F)c(F)cc2c1=O,12.2,–,–
COc1ccc(/C=C2\SC(=O)N(CCC(=O)Nc3ccccc3)C2=O)cc1OC,-59.1,"32.6 µM [falling, partial curve, poor fit]","29.1 µM [falling, single point]"
O=C(CCC(=O)Nc1cc(C(F)(F)F)ccc1Cl)N/N=C\c1cc([N+](=O)[O-])ccc1O,-7.24,"3.66 µM [falling, single point]",–
CCN(C(=O)CCNC(=O)Cn1cnc2ccccc2c1=O)c1cccc(Cl)c1,-6.35,–,–
COc1ccccc1C(C(=O)NC1CCCCC1)N(C(=O)c1csnn1)C1CC1 (centres undefined),-1.9,–,–
O=C(O)COc1ccccc1/C=N/NC(=O)c1cc2ccccc2cc1O,24.9,"0.00461 µM [rising, full curve, poor fit]",–
Cc1ccc(/C=N/NC(=O)CCn2nc(C)cc2C)c(C)c1,0.865,–,–
O=C(O)c1ccccc1-c1ccccc1C(=O)Nc1ccc2c(c1)CCC2,-9.49,"29.1 µM [rising, single point]",–
CCc1ccccc1NC(=O)CN1CCN(C(=O)c2ccc(OCc3cn4ccccc4n3)cc2)CC1,15,–,–
CCCn1cc(S(=O)(=O)c2ccc(C)cc2)c(=O)c2cc(OC)c(OC)cc21,8.25,–,–
